Test results from patent US20240115649A1, “CASPASE INHIBITION TO ENHANCE REGENERATION AND REPAIR AFTER SKIN OR GUT INJURY AND TO TREAT BACTERIAL OR VIRAL INFECTIONS” (The Johns Hopkins University, priority 2020, published 2024).
Some results were stated once for a whole list of compounds, not compound by compound.

Legend:
mouse neutrophils = test: Neutrophil cultures with live S. aureus ± caspase inhibitors; conditions: live S. aureus 6 hours; Q-VD-OPH 10 μg/mL, Emricasan 9 μg/mL
BMDMs = test: BMDM cultures with live S. aureus ± caspase inhibitors; conditions: live S. aureus 6 hours; Q-VD-OPH 10 μg/mL, Emricasan 9 μg/mL

C[C@H](NC(=O)C(=O)Nc1ccccc1C(C)(C)C)C(=O)N[C@@H](CC(=O)O)C(=O)COc1c(F)c(F)cc(F)c1F [Emricasan]
percentages of Annexin V+ neutrophils (mouse neutrophils): < 3%
percentages of Annexin V+ BMDMs (BMDMs): < 3%
